At least one compound was matched to its structure with a doubt left.
Tested on: FHF and aSHF progenitors / cardioids
Assay: Lineage specification of cardiac progenitors/cardioids by retinoic acid dosage
Type: cell-based, human
Procedure: These were termed 3D protocols.
The retinoic acid concentration should be low as a higher concentration (>100 nM) leads to FHF-derived atria, not ventricular fate.
The retinoic acid addition here helps drive the RV identity.

Structure (SMILES): CC1=C(/C=C/C(C)=C/C=C/C(C)=C/C(=O)O)C(C)(C)CCC1 [retinoic acid]
- RV and chamber specific gene expression (RA500 during patterning stage 2): higher upregulation of RV and chamber specific genes
- progenitor identity after addition during the aSHF patterning stage (aSHF patterning stage): switch toward the pSHF identity
- aSHF specification at higher dosages (higher dosages, patterning stage 2): promoted aSHF specification towards the RV chamber identity
